First the molecules themselves.
T1: Cdc10-mCherry (C. neoformans) (UniProt J9VMT9)
T1 sequence: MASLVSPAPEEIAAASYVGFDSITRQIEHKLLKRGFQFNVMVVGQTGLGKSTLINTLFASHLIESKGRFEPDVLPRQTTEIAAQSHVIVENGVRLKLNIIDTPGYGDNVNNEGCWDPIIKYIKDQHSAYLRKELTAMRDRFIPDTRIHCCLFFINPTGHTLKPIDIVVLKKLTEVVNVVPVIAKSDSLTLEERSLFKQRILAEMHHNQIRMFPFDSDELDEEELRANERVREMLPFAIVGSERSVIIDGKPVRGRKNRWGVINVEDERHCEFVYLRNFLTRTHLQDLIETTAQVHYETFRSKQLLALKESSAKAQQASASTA

T2: Cdc3-mCherry (C. neoformans) (UniProt J9VUF2)
T2 sequence: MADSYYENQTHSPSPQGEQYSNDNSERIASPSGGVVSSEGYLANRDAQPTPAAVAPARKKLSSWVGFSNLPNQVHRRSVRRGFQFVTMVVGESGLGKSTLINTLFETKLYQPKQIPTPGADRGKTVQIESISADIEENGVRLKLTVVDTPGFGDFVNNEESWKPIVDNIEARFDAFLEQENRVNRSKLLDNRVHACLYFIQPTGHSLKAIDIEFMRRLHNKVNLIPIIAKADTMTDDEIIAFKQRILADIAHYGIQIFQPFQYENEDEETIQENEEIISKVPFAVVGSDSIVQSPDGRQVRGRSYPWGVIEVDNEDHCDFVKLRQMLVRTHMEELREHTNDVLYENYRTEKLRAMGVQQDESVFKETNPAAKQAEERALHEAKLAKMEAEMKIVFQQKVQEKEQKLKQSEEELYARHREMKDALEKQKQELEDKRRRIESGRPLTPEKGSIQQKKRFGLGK

B1: Catalase (protein, UniProt J9VH55 1-694)
chain: MSQMLNQAANMVTGDAKYRQMAENTIDQDDKTPYTTYFGVKVSDTDNSLRAGARGPTLLEDFHNREKIQHFDHERIPERVVHARGAGAFGEFKLHTPLTDITTAKVLTDTSKVVPAYVRFSAVAGFRGSADTSATTCPCSSLMDAIKFPDVIHAVQPEPHNQIPQAQTAHDNAWDFMSLHKPALHMQQWLTSDRAVPRSYRMMQGFGVHTFRLINEEGKSTFVKYHWIPHLGTHSLVWDEALKVAGQDPDFHRRDLWDAIEVGAYPKWDLGVQLIKEEDEHKFDFDLLDATKLIPEELVPVQKIGTLTLNRNPVDYFSEVEQVAFCTQHIVPGMDFTDDPLLAGRNFSYPDTQVSRLGINWKDIPVNRPICPFMTTMREGQMSMFSKNNRTPYHPNRNENLPLTSPKQGGFKSYPAKVSGIKERVQAPKFNDHSSQATLFWNSMSDVEKKHIIDAYKFELSHCADNLVIQNVINRINEIDHGLATAVHSGFPHLSLPEAKPNHGKRTEYLSQITGKNQTFTAAGRKIGIFLVPGFVYSQVAPLLAAFEAAGCMVKFVGPTLGPVKASDGQSFTTEFTFEGCRSTYFDALIFAGGPDDAFVSKLKIGRLIHAAREAYMHLKAIGAVGNATQWLVETCIPGDFSPTVKTESSVVQENGVVFAPANPTLHSAQFAKQFLETVANHRVWDREVSHIAA
B2: Rho GTPase activator (protein, UniProt J9VRK0 1-1393)
chain: MSSPTYPKPTVPPPGAWPSRPSLDDSTPRRSIDQRQGPFLHLSQPNSSTHHADSSESSRRNSMASGSIHNSPSSLGSSSKNLGRFDEHAPLQTAVELPTRGEPGFVGSARLPWITTSAIDSESGPRSAPVESGRLRSSGAGSAPLRSSSSPDPWMNQTSQRSSPSTSPIDHRPNFATGHGQVSFQGNLVPPYLHGQERRPSPASSLTGGRPLPPRKASDQSTSSQTPSTATFHSDNIGMSDGQPLLQWPQPRTRKDGGGTTCGQCAQTVHGQFVRAMGKVYHLNCFRCKDCNKVVAQKFFPVEDGDGMYPLCERDYFARLDLICAKCDQALRASYITACGAKYHVEHFTCSECDVLFGPNDSYYEHDGRVYCHYHYSTRFAVKCVGCETAILKQFVEMNRNGRNECWHPECYMISKFWNVRLASKTFNTPASSAVASTISLLEMSSITAPGAPVTSASQLIQIPLDSPNPESHITPAELKERQEAMEMKVQQIWHVLSGYEESSAALIGDMLRAVNERNLLDIILLAERFILHVETLFAVIDDIEAQFAMVGAKGIPHAREAKQLCRKLVNLFSNMSQISPAGGPSPSSNELFTLITQLAHYLKILIRIALTGSIKLEREYNNQTAMTNCLARLNLLAMDSGDPNIKKRGDWPDVSPQNGNGMQSQNGHGEGFSVDEGQGGVQGDEEQLKKSMDALTRRPTGYLSSTRDIAYGYRSLAPEVTGETTLRGPQDEDFIPLEGCAQCGAPIEEDCVRLGMFLRWHCACIACNVCGETALQSVRDDMTDEGSTHSHTDTGSNSGIMSRQNSVRNTPAKVDYFWFAPEHFSGMAKPPEKIWCGIHKNLNGSWKGFEGVSRLEQYAFLLHIALRRLYVHFRLHHSLQSVRDHGISGRAESEVKRMKSVTLDRKLSSTARLPQRSMVVESPAGRMADGNGQIISARNAESPTPTPKERQTEIIITTEDASNNATTVNVLRPPFARNNTSVKIIKENSEESPQRGFRRVSAPKEDDAITLGDISLLADKDRRPDNRPLLSNLSPLQSIILRHFALLQLQKTSLGPLIDLDDMLDLLDARKGQWWNKIFKGNAKKDTKKKGLFGVPIEVLVERTGSDSSFGVPNSQVRVPEFIEDIISTMRQMDMAVEGVFRKNGNIRKLQTLVEALDKDSTAVNLSEENVIQLAALLKRFLRELPDPLLTFRLHRLFCAAATLPSSEERSRCLHLLISLLPKYNRDTMEVLFIFLKWVSSFSYREEETGSKMDLANLATVICPSILYAKGSNAVKDDSFTAIAAVQELLENQDEYYRVPSELLFVIQEGIYQIFAKDLDLPPKEIFRHCSKYTQARSAAQPQQQRLGIPHSNSSSQVSQTSVSRSVESATRISQVTITADSSSGNYRPPLP
B3: Reverse transcriptase domain-containing protein (protein, UniProt J9VKK4 1-767)
chain: MDDNHFHLQDHEHTPNHDDTAEALIASLKAVINDPNSHNQQPSDIHDHEADPESSQQPQHHEQAQNTLNAFTAEQHSNPVHVGLRKSLAQLTHLTNAHQGLLDELNGAGAIQNLAQNLKALKEGNKRQIDVLKELTGQIKASELGVDLSVPFSEQLDPELSPVVLRSDYDALKAQYDALLVSGSPSSVATGKRLAGARKSRAPKSVATVTTIEPETLRAVEDDKRASHSSTPTGGVEGRKKRSIRLEHLVHKMANRRLGVEYTVSNFESKGSRDLPDPATHPLTAEESPNGVDEFRPHFGADINASTVKPFIDRVIEDVWEAWQSGQGDEDVEADRQKVFDAVKIYWTRLSKRYDEQQHRERGEIHRDELSRRKQNTYRRQQSLLMRRTAHFDWSPLNACRLRALYRTLLTIDFAAQTQDQPDPKRAYTPEEWYAYRRLACGPRSGEAHEVIDQFWLSPAVRTLLLILDEFAQDQQARAKKKGKPKQPNPIFHLPAHLWDRSTLPTLRPKDNDGLPLSGSPGIILFKFHVDEQVQRENPDWAKGLYDNPPIPPEDEALPKLSELLSQPAYAGLRQIVHEAKDRANPKMLTNEQVEQINSGVDLSLLEGLNIPPAGLEGEGEYMTFAALTQLASNSEVNSSRPSGLPEQLIVHDDAPNTPDHKYVHSAFPSSSITAATPLATHISGVGPSPIPLPYTGTDASSAARSGTSMRARKLGKRAASEFPGGAATPVPKRQRVVGALENEDEEDRDAEVEEVLGGDAAFLEEM
B4: TPR_REGION domain-containing protein (protein, UniProt J9VGX5 1-1148)
chain: MEGESQTNMDATLTELSNLLAELEEQPENVFFLRRQIVLMRSLGMTAEVLDAYAKLSSLIMLQEEEWLTYLDNFVNSVVKPLDVTAFMDIVEKYVQAERDYLSLPIILQHVKFIIACFKAGQDPQSSEEALEVPVDEELAAFLDVGTTRGLIKAATDLGNGLLSESQQLWQLWIDWELGLMEGAKGTEKQEAIESVHNVYLQRLAIPHSTIDQTTSSYSSFCSTYCNEEYEQRLVKATEVSQTAKYKWSGERRAGKSREDFELLILYATDLAAQAQVFVEYYKWESSARIKPTAHGKGPNVDITLTQAVFERAVVPYAKLAAMAQSSLDEINLKLQKQSKSKKSKGKGKKKEGEPEATTLAEQKQAMEETIRAYKDAEAGIWAKYASWSEEAIHAMTGTKIRKNAVRAVPHCGGAWADLFQDTEKVTADLQQLDSLFETALSLGLLFIPEGRTTEITELFLARAAYEARLASVNVALGAVHPALATITRGLEAITKVNKSGDASLKLEKFALDWAETIAPEYLDQTLLVLDKPVKCRSSSYQFALLRANVEIRRDDVDRAREIFEKFIQRTDLDWPEAIYEAFIQLEVVHGTPQTLQDTRKKIEREQEKVAKRREKAAAEASAYQEQYTAAAIQGAAAGAVDAVMGDAELKGVDPTQEAVDLAVAASADLSAAPVAVGQSGKDNAEEVHLKRDREHTTVLVTGLPKGCTPERIENFFFECGPVRETTILVDEDAMHDSALVEFKKAEAIPDVLEKDKKKFEGTPVSISMLWRSTLFVTNFPREMDDGGIRNLLEQYGRILETRWPSRKYADSRRFCYVTMESPAAAQEALVLHGYKVPGASTNFGLTVLISDPSAKTKRSDAANSTLFVGGLNNKSTEVDIKGLFNEFGTISHIKLGWDPLKRICKGFAFVEMSTEAEAKAALKLHGTQYKGKYLKVEISDPNHANKKSQERKPDQAAEKRLRSVRLSNLPEDTQEGLLQQALEKIVPVRRLEMFVRSHEALAELESQADVGKLLLRTEPFIFNGNEITFTEQNKRPPPAKEARDDSGNDKDVKSSSAPSGPSTMFAPRAARKALAKPRPTAVAAAKAVAASPGIPAQGQDDFRALVAAKNKQREEKLNIAREGSGTSGEKRKLEDGQEGEESKRTRT
B5: CENP-V/GFA domain-containing protein (protein, UniProt J9VH97 1-137)
chain: MPVTLTGGCFCTALTYRVSLDSLDDARVTLCHCSSCKKAFGGDFGLTAKIPVSSFRYTQGQATEHKTKNGVKREFCGTCGSYILEYGEAAANDFRYIVVGSLDEPAVLPPKGEFFCKNRLEWMPQIPNTFQKQEIKE
B6: AAA domain-containing protein (protein, UniProt J9VKK1 1-972)
chain: MTEESSSIIADNSTATKSPTTFTSPNGTVLTFQSAGNYLSSWLQTIGHSPDYSMEDVLPEGYIPPPLSKKAAKKAALGDANVYAGPPPGSMRVCTVNLPFYGPIRSTPWANKALAKQSASFEAVKELHKHGEVDDNFQATPLRPKKKGDTKGTKSRCHDTWEIKKAVIRDQLPRPTGGVGHGHYDYQTTPEFWSTCPPFNPRSLHASILQLSPAGEGKYDHPECRLMCMLTSRPLPVFKKSNQVEVRMAVGEQPPLCATMRVINGGKMDTFYSGKLDQALVFTEKLMRAEVQKAFKTDLRKVKWLLLPLRREYVPPTKEQLVAGKSVSLKLDDISWKEVDAVTDGALTLPFTFDDYDSLKREIVDSLATAPSEMSRRSYIIDVRQDLHPLSSHPDVPGKTICDVLKEGNVTLPQLTEPSQPILEVETVNLAKTGSYISTAAMAAEERPRQYLVPEFEHRHCIPASVFRTCTVIPYFIFHLESMLIAEEMSAKEFNSILGPELALQAITAPEGLNVPRWTYERLEILGDTLLKFMTTLHFYLLGGGADSEDDMNKVWQDRHMLISNRTLTANAVKQGLVKYVRNKKFKVKDWTPRDWELDQPPGQFAPKKAMPTSFDGPESRMLGDKVIADIIEAIIGASYMPNKDLDSVIAILHNLMVPLNLFKTWDDVKHVLPPPKAEEPKNPDVPAYISFFKKSSYEVLGYKFKDNKKFEDAFSLAPAQQTRRIRERYKMMGNALLDLYVIELLMDNYPDEGPASLSIMKLSRTTEGLRCALAVELGMPDLIIDGDDHSRSELKRATHFMQKAKAQADEDLNENEQGGVHYWEEVVISRVNGSIIEIVFGAIFEDCNFSLEPTQKIFTERIAPFLAKYCRGPNGFDPHPKAMLTRWMQKKGCQFWNLTAEGPKLNQGVVTCHDKEIARECAFTQHVTIRHVCLAALKRLRDENYIEEICNCPSFKKVIPDDEKIFGKKRA

These are yes or no findings as the source states them, for the method shown. In cells and extracts the contact can be indirect. A yes stands for co-enrichment or nearness to the bait. Other partners may have been found.

In the first assay the target is T1, Cdc10-mCherry (C. neoformans). Nature of the assay: affinity purification with mass spectrometry.
As for B1, the binding result is reported as “binds”.

Take B2: the binding result is “binds”.

As to B3, the binding entry is reported as “binds”.

As for B4, the binding result was “binds”.

Consider B5, for which the binding result is on record as “binds”.

As to B6, the binding entry is given as “binds”.

The target in a further assay is T2, Cdc3-mCherry (C. neoformans). In words: affinity purification with mass spectrometry.
On to B1, for which the binding result is listed as “binds”.

As for B2, the binding result is recorded as “binds”.

B3: the binding entry was “binds”.

As for B4, the binding result is given as “binds”.

B5: the binding result is “binds”.

As for B6, the binding result is listed as “binds”.

For the origin of these results see article PMC11651612.
